# Measurements as given in PMC5675994.
# Sequences of proteins named here, by UniProt entry; tags and fusion partners are left off. A change or cut given only in a name is not applied to a line headed by its entry.
# UniProt Q07540: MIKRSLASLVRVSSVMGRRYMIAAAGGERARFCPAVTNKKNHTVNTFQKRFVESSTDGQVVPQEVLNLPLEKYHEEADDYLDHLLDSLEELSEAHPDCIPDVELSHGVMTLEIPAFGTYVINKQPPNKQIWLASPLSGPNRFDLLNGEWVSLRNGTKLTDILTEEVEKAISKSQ
# UniProt P25632: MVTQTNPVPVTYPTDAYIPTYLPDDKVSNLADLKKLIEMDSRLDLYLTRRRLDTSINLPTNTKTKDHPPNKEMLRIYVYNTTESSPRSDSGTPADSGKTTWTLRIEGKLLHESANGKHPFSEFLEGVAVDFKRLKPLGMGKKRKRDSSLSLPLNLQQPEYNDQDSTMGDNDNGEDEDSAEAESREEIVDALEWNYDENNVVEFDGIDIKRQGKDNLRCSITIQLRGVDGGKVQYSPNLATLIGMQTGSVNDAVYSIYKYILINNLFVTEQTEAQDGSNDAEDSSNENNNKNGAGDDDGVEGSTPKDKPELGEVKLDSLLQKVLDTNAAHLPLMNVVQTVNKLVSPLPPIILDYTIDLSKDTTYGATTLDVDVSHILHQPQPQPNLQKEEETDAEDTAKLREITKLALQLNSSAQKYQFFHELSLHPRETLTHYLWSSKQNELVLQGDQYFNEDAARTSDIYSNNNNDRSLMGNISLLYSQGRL
# UniProt P32597: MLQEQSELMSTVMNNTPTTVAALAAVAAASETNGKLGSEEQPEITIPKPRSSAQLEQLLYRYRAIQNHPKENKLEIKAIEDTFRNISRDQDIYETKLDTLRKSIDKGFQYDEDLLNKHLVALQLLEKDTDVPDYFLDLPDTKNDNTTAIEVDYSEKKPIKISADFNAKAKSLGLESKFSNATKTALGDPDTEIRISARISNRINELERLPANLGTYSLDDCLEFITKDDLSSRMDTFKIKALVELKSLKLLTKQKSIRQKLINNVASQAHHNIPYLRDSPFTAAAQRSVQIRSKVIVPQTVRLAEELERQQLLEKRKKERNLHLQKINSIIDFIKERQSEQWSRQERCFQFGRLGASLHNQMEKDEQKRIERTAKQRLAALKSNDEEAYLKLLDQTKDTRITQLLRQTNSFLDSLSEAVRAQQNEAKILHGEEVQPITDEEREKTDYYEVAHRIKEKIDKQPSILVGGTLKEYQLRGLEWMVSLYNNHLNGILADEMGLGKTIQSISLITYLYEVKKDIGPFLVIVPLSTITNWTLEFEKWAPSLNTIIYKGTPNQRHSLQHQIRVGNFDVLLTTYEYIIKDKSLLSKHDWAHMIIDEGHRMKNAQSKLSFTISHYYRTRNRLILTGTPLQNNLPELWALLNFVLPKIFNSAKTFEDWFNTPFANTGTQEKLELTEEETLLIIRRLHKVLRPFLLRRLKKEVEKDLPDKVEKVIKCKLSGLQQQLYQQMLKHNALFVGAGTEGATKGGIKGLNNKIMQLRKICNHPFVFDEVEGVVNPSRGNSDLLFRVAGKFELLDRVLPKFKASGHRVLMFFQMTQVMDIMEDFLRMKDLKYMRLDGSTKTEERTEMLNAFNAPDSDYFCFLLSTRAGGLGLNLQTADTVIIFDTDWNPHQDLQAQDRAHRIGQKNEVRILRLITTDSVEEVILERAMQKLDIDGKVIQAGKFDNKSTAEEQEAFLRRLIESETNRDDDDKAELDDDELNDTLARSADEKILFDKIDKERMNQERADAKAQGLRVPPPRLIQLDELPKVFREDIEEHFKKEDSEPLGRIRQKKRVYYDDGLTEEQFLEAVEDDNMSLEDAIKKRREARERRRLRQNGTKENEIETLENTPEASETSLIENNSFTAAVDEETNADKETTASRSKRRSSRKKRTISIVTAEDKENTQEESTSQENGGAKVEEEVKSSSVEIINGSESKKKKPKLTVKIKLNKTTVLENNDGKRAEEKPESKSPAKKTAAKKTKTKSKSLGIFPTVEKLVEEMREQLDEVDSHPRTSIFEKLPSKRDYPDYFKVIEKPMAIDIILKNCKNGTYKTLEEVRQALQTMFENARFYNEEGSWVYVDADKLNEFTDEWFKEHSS
# UniProt P43609: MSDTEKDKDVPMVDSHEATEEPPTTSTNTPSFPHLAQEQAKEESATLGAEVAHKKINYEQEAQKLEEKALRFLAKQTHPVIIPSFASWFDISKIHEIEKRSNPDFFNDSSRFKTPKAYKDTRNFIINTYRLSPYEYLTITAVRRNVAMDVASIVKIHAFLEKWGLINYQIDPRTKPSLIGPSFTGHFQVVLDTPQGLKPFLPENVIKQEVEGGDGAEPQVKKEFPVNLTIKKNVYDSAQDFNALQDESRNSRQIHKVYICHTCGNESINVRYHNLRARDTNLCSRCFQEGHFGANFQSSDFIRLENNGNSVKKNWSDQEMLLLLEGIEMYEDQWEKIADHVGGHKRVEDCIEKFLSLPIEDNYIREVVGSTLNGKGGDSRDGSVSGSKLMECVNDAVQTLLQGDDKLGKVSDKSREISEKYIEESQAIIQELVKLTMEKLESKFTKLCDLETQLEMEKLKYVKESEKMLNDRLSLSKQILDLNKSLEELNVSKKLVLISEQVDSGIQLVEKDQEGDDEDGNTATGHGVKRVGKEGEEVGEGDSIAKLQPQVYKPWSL
# UniProt P11484: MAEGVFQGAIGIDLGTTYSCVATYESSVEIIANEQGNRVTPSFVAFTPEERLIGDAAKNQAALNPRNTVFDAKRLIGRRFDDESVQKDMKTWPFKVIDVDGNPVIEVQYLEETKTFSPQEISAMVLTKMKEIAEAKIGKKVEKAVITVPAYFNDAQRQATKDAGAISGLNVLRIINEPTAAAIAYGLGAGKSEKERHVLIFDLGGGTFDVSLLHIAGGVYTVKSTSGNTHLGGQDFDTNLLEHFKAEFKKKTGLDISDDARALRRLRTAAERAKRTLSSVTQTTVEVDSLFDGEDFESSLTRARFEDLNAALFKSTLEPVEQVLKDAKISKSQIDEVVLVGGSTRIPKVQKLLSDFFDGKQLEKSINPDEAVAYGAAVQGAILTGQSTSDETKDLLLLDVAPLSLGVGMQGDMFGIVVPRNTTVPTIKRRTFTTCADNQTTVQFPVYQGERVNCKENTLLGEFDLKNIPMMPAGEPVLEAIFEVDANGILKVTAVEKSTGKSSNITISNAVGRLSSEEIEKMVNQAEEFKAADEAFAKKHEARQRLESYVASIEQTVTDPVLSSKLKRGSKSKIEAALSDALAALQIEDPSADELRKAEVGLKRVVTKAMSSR
# T1: Nfs1-His6 (S. cerevisiae) (UniProt P25374)
# T1 sequence: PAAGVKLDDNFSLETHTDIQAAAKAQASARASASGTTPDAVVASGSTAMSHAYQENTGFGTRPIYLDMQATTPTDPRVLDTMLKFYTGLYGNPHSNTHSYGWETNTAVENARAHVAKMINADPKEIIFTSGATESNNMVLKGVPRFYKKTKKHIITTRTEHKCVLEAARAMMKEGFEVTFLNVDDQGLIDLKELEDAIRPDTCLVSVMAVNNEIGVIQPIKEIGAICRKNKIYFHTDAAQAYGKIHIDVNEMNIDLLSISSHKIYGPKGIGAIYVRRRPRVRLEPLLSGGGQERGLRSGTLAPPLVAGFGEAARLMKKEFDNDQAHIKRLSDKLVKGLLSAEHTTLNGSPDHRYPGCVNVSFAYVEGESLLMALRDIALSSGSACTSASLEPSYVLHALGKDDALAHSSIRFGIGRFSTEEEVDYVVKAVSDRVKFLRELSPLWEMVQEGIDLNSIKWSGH
# B1: Elongation factor 3A (protein, UniProt P16521 1-1044)
# chain: MSDSQQSIKVLEELFQKLSVATADNRHEIASEVASFLNGNIIEHDVPEHFFGELAKGIKDKKTAANAMQAVAHIANQSNLSPSVEPYIVQLVPAICTNAGNKDKEIQSVASETLISIVNAVNPVAIKALLPHLTNAIVETNKWQEKIAILAAISAMVDAAKDQVALRMPELIPVLSETMWDTKKEVKAAATAAMTKATETVDNKDIERFIPSLIQCIADPTEVPETVHLLGATTFVAEVTPATLSIMVPLLSRGLNERETGIKRKSAVIIDNMCKLVEDPQVIAPFLGKLLPGLKSNFATIADPEAREVTLRALKTLRRVGNVGEDDAIPEVSHAGDVSTTLQVVNELLKDETVAPRFKIVVEYIAAIGADLIDERIIDQQAWFTHITPYMTIFLHEKKAKDILDEFRKRAVDNIPVGPNFDDEEDEGEDLCNCEFSLAYGAKILLNKTQLRLKRARRYGICGPNGCGKSTLMRAIANGQVDGFPTQEECRTVYVEHDIDGTHSDTSVLDFVFESGVGTKEAIKDKLIEFGFTDEMIAMPISALSGGWKMKLALARAVLRNADILLLDEPTNHLDTVNVAWLVNYLNTCGITSITISHDSVFLDNVCEYIINYEGLKLRKYKGNFTEFVKKCPAAKAYEELSNTDLEFKFPEPGYLEGVKTKQKAIVKVTNMEFQYPGTSKPQITDINFQCSLSSRIAVIGPNGAGKSTLINVLTGELLPTSGEVYTHENCRIAYIKQHAFAHIESHLDKTPSEYIQWRFQTGEDRETMDRANRQINENDAEAMNKIFKIEGTPRRIAGIHSRRKFKNTYEYECSFLLGENIGMKSERWVPMMSVDNAWIPRGELVESHSKMVAEVDMKEALASGQFRPLTRKEIEEHCSMLGLDPEIVSHSRIRGLSGGQKVKLVLAAGTWQRPHLIVLDEPTNYLDRDSLGALSKALKEFEGGVIIITHSAEFTKNLTEEVWAVKDGRMTPSGHNWVSGQGAGPRIEKKEDEEDKFDAMGNKIAGGKKKKKLSSAELRKKKKERMKKKKELGDAYVSSDEEF
# B2: Long-chain-fatty-acid--CoA ligase 1 (protein, UniProt P30624 1-700)
# chain: MVAQYTVPVGKAANEHETAPRRNYQCREKPLVRPPNTKCSTVYEFVLECFQKNKNSNAMGWRDVKEIHEESKSVMKKVDGKETSVEKKWMYYELSHYHYNSFDQLTDIMHEIGRGLVKIGLKPNDDDKLHLYAATSHKWMKMFLGAQSQGIPVVTAYDTLGEKGLIHSLVQTGSKAIFTDNSLLPSLIKPVQAAQDVKYIIHFDSISSEDRRQSGKIYQSAHDAINRIKEVRPDIKTFSFDDILKLGKESCNEIDVHPPGKDDLCCIMYTSGSTGEPKGVVLKHSNVVAGVGGASLNVLKFVGNTDRVICFLPLAHIFELVFELLSFYWGACIGYATVKTLTSSSVRNCQGDLQEFKPTIMVGVAAVWETVRKGILNQIDNLPFLTKKIFWTAYNTKLNMQRLHIPGGGALGNLVFKKIRTATGGQLRYLLNGGSPISRDAQEFITNLICPMLIGYGLTETCASTTILDPANFELGVAGDLTGCVTVKLVDVEELGYFAKNNQGEVWITGANVTPEYYKNEEETSQALTSDGWFKTGDIGEWEANGHLKIIDRKKNLVKTMNGEYIALEKLESVYRSNEYVANICVYADQSKTKPVGIIVPNHAPLTKLAKKLGIMEQKDSSINIENYLEDAKLIKAVYSDLLKTGKDQGLVGIELLAGIVFFDGEWTPQNGFVTSAQKLKRKDILNAVKDKVDAVYSSS
# B3: Alcohol dehydrogenase 2 (protein, UniProt P00331 1-348)
# chain: MSIPETQKAIIFYESNGKLEHKDIPVPKPKPNELLINVKYSGVCHTDLHAWHGDWPLPTKLPLVGGHEGAGVVVGMGENVKGWKIGDYAGIKWLNGSCMACEYCELGNESNCPHADLSGYTHDGSFQEYATADAVQAAHIPQGTDLAEVAPILCAGITVYKALKSANLRAGHWAAISGAAGGLGSLAVQYAKAMGYRVLGIDGGPGKEELFTSLGGEVFIDFTKEKDIVSAVVKATNGGAHGIINVSVSEAAIEASTRYCRANGTVVLVGLPAGAKCSSDVFNHVVKSISIVGSYVGNRADTREALDFFARGLVKSPIKVVGLSSLPEIYEKMEKGQIAGRYVVDTSK
# B4: Glycerol-3-phosphate dehydrogenase [NAD(+)] 2, mitochondrial (protein, UniProt P41911 17-440)
# chain: HPVLYTRRAYKILPSRSTFLRRSLLQTQLHSKMTAHTNIKQHKHCHEDHPIRRSDSAVSIVHLKRAPFKVTVIGSGNWGTTIAKVIAENTELHSHIFEPEVRMWVFDEKIGDENLTDIINTRHQNVKYLPNIDLPHNLVADPDLLHSIKGADILVFNIPHQFLPNIVKQLQGHVAPHVRAISCLKGFELGSKGVQLLSSYVTDELGIQCGALSGANLAPEVAKEHWSETTVAYQLPKDYQGDGKDVDHKILKLLFHRPYFHVNVIDDVAGISIAGALKNVVALACGFVEGMGWGNNASAAIQRLGLGEIIKFGRMFFPESKVETYYQESAGVADLITTCSGGRNVKVATYMAKTGKSALEAEKELLNGQSAQGIITCREVHEWLQTCELTQEFPLFEAVYQIVYNNVRMEDLPEMIEELDIDDE
# B5: External NADH-ubiquinone oxidoreductase 1, mitochondrial (protein, UniProt P40215 42-560)
# chain: EDKKVILQKVAPTTGVVAKQSFFKRTGKFTLKALLYSALAGTAYVSYSLYREANPSTQVPQSDTFPNGSKRKTLVILGSGWGSVSLLKNLDTTLYNVVVVSPRNYFLFTPLLPSTPVGTIELKSIVEPVRTIARRSHGEVHYYEAEAYDVDPENKTIKVKSSAKNNDYDLDLKYDYLVVGVGAQPNTFGTPGVYEYSSFLKEISDAQEIRLKIMSSIEKAASLSPKDPERARLLSFVVVGGGPTGVEFAAELRDYVDQDLRKWMPELSKEIKVTLVEALPNILNMFDKYLVDYAQDLFKEEKIDLRLKTMVKKVDATTITAKTGDGDIENIPYGVLVWATGNAPREVSKNLMTKLEEQDSRRGLLIDNKLQLLGAKGSIFAIGDCTFHPGLFPTAQVAHQEGEYLAQYFKKAYKIDQLNWKMTHAKDDSEVARLKNQIVKTQSQIEDFKYNHKGALAYIGSDKAIADLAVGEAKYRLAGSFTFLFWKSAYLAMCLSFRNRVLVAMDWAKVYFLGRDSSI
# B6: Phosphatidylethanolamine N-methyltransferase (protein, UniProt P05374 1-869)
# chain: MSSCKTTLSEMVGSVTKDRGTINVEARTRSSNVTFKPPVTHDMVRSLFDPTLKKSLLEKCIALAIISNFFICYWVFQRFGLQFTKYFFLVQYLFWRIAYNLGIGLVLHYQSHYETLTNCAKTHAIFSKIPQNKDANSNFSTNSNSFSEKFWNFIRKFCQYEIRSKMPKEYDLFAYPEEINVWLIFRQFVDLILMQDFVTYIIYVYLSIPYSWVQIFNWRSLLGVILILFNIWVKLDAHRVVKDYAWYWGDFFFLEESELIFDGVFNISPHPMYSIGYLGYYGLSLICNDYKVLLVSVFGHYSQFLFLKYVENPHIERTYGDGTDSDSQMNSRIDDLISKENYDYSRPLINMGLSFNNFNKLRFTDYFTIGTVAALMLGTIMNARFINLNYLFITVFVTKLVSWLFISTILYKQSQSKWFTRLFLENGYTQVYSYEQWQFIYNYYLVLTYTLMIIHTGLQIWSNFSNINNSQLIFGLILVALQTWCDKETRLAISDFGWFYGDFFLSNYISTRKLTSQGIYRYLNHPEAVLGVVGVWGTVLMTNFAVTNIILAVLWTLTNFILVKFIETPHVNKIYGKTKRVSGVGKTLLGLKPLRQVSDIVNRIENIIIKSLVDESKNSNGGAELLPKNYQDNKEWNILIQEAMDSVATRLSPYCELKIENEQVETNFVLPTPVTLNWKMPIELYNGDDWIGLYKVIDTRADREKTRVGSGGHWSATSKDSYMNHGLRHKESVTEIKATEKYVQGKVTFDTSLLYFENGIYEFRYHSGNSHKVLLISTPFEISLPVLNTTTPELFEKDLTEFLTKVNVLKDGKFRPLGNKFFGMDSLKQLIKNSIGVELSSEYMRRVNGDAHVISHRAWDIKQTLDSLA
# B7: ATP-dependent RNA helicase MSS116, mitochondrial (protein, UniProt P15424 27-664)
# chain: NHITWAVSRRLYNDGNRDQRNFGRNQRNNNSNRYRNSRFNSRPRTRSREDDDEVHFDKTTFSKLIHVPKEDNSKEVTLDSLLEEGVLDKEIHKAITRMEFPGLTPVQQKTIKPILSSEDHDVIARAKTGTGKTFAFLIPIFQHLINTKFDSQYMVKAVIVAPTRDLALQIEAEVKKIHDMNYGLKKYACVSLVGGTDFRAAMNKMNKLRPNIVIATPGRLIDVLEKYSNKFFRFVDYKVLDEADRLLEIGFRDDLETISGILNEKNSKSADNIKTLLFSATLDDKVQKLANNIMNKKECLFLDTVDKNEPEAHERIDQSVVISEKFANSIFAAVEHIKKQIKERDSNYKAIIFAPTVKFTSFLCSILKNEFKKDLPILEFHGKITQNKRTSLVKRFKKDESGILVCTDVGARGMDFPNVHEVLQIGVPSELANYIHRIGRTARSGKEGSSVLFICKDELPFVRELEDAKNIVIAKQEKYEPSEEIKSEVLEAVTEEPEDISDIVISLISSYRSCIKEYRFSERRILPEIASTYGVLLNDPQLKIPVSRRFLDKLGLSRSPIGKAMFEIRDYSSRDGNNKSYDYDDDSEISFRGNKNYNNRSQNRDYDDEPFRRSNNNRRSFSRSNDKNNYSSRNSNIY
# Target: T1, Nfs1-His6 (S. cerevisiae)
# Test: affinity purification with mass spectrometry; Nfs1-His6 held on Ni-NTA superflow agarose from sonicated, cleared lysate of isolated mitochondria of the Gal-Nfs1-His6 yeast strain; 50 mM TrisCl pH 7.5, 80 mM KCl, 10% glycerol, wash 40 mM imidazole, elution 400 mM imidazole; eluate analysed by LC-MS/MS
row,Molecule,binding
1,"NAD-dependent malic enzyme, mitochondrial (S. cerevisiae)",binds
2,"Protein RMD9-like, mitochondrial (S. cerevisiae)",binds
3,"Frataxin homolog, mitochondrial;Frataxin homolog intermediate form (from UniProt Q07540)",binds
4,Transposon Ty1-NL2 Gag-Pol polyprotein;Capsid protein (S. cerevisiae),binds
5,"D-lactate dehydrogenase [cytochrome] 1, mitochondrial (S. cerevisiae)",binds
6,Chromatin structure-remodeling complex protein RSC6 (from UniProt P25632 1-483),binds
7,Nuclear protein STH1/NPS1 (from UniProt P32597 1-1359),binds
8,Chromatin structure-remodeling complex protein RSC8 (from UniProt P43609 1-557),binds
9,"Threonine dehydratase, mitochondrial (S. cerevisiae)",binds
10,Heat shock protein SSB1 (from UniProt P11484 1-613),binds
11,B1,binds
12,B2,binds
13,B3,binds
14,B4,binds
15,B5,binds
16,B6,binds
17,B7,binds

# No constants are given. Whether binding was seen depends on the method and setting. Binding seen in cells or lysates may run through a third protein. A yes stands for co-enrichment or nearness to the bait. Other partners may have been found. Sequences can lack the tags named with a protein.
